This is an account of results in patent publication US9879050B2 (priority 2013, dated 2018).

The data set in a line: general procedure: solution-phase peptide synthesis; TPTU/HOBT/DIEA; HATU/DIEA.

In turn, “Tert-Butyl (S)-2-((S)-2-(((S)-1-((2S,4S)-2-((((2S,3S)-3-(((Benzyloxy)Carbonyl)Amino)-4-Oxo-4-(2-Oxo-2-Phenylethoxy)Butan-2-Yl)Oxy)Carbonyl)-4-Methylpyrrolidin-1-Yl)-1-Oxopropan-2-yl)Carbamoyl)Piperidine-1-Carbonyl)Pyrrolidine-1-Carboxylate” returned a step yield (coupling step) of 79%.
On to “(S)—N-((2R,6S,8aS,14aS,20S,23aS)-2,6-Dimethyl-5,8,14,19,23-Pentaoxooctadecahydro-1H,5H,14H,19H-Pyrido[2,1-I]Dipyrrolo[2,1-C:2′,1′-L][1]Oxa[4,7,10,13]Tetraazacyclohexadecin-20-Yl)-3-Phenyl-2-(3-Phenylureido)Propanamide”, for which the step yield (late stage modification step) amounted to 40%.
For “(S)-3-(3,5-Difluorophenyl)-N-((6S,8aS,14aS,20S,21 S,23aS)-6,21-Dimethyl-5,8,14,19,23-Pentaoxooctadecahydro-1H,5H,14H,19H-Pyrido[2,1-I]Dipyrrolo[2,1-C:2′,1′-L][1]Oxa[4,7,10,13]Tetraazacyclohexadecin-20-Yl)-2-(3-(P-Tolyl)Ureido)Propanamide”, the step yield (late stage modification step) is on record as 54%.
